Reference: publication PMC7891773
These are yes or no findings as the source states them, for the method shown. In cells and extracts the contact can be indirect. Sequences can lack the tags named with a protein.

T1: GST-mFOG1 (aa 1-45) (mouse) (UniProt O35615)
T1 sequence: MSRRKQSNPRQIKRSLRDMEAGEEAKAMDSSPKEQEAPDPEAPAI

B1: dCHD3 (enzyme, UniProt O16102 1-892)
chain: MSSKRGADPDWKTPGKASKDKRPKTNAKKQKFRDEEYCKVCSDGGDLLCCDSCPSVYHRTCLSPPLKSIPKGDWICPRCIPLPGKAEKILSWRWALDRSVELRTSKGEKRREYFIKWHGMSYWHCEWIPEGQMLLHHASMVASFQRRSDMEEPSLEELDDQDGNLHERFYRYGIKPEWLLVQRVINHSEEPNGGTMYLVKWRELSYNDSSWERESDSIPGLNQAIALYKKLRSSNKGRQRDRPAPTIDLNKKYEDQPVFLKEAGLKLHPFQIEGVSWLRYSWGQGIPTILADEMGLGKTIQTVVFLYSLFKEGHCRGPFLISVPLSTLTNWERELELWAPELYCVTYVGGKTARAVIRKHEISFEEVTTKTMRENQTQYKFNVMLTSYEFISVDAAFLGCIDWAALVVDEAHRLRSNQSKFFRILSKYRIGYKLLLTGTPLQNNLEELFHLLNFLSSGKFNDLQTFQAEFTDVSKEEQVKRLHEILEPHMLRRLKADVLKSMPPKSEFIVRVELSSMQKKFYKHILTKNFKALNQKGGGRVCSLLNIMMDLRKCCNHPYLFPSAAEEATISPSGLYEMSSLTKASGKLDLLSKMLKQLKADNHRVLLFSQMTKMLNVLEHFLEGEGYQYDRIDGSIKGDLRQKAIDRFNDPVSEHFVFLLSTRAGGLGINLATADTVIIFDSDWNPHNDVQAFSRAHRMGQKKKVMIYRFVTHNSVEERIMQVAKHKMMLTHLVVRPGMGGMTTNFSKDELEDILRFGTEDLFKDGKSEAIHYDDKAVADLLDRTNRGIEEKESWANEYLSSFKVASYATKEDHEEHDDYNNDAENTDPFYWENLMGKSQPKLPKKQKKQSQQSQVDVESIMGKGKRIRKEIDYSNQYPSPNRATPSSIVLM
B2: dPc (protein, UniProt P26017 1-390)
chain: MTGRGKGSKGKLGRDNATDDPVDLVYAAEKIIQKRVKKGVVEYRVKWKGWNQRYNTWEPEVNILDRRLIDIYEQTNKSSGTPSKRGIKKKEKEPDPEPESEEDEYTFTENDVDTHQATTSSATHDKESKKEKKHHHHHHHHHHIKSERNSGRRSESPLTHHHHHHHHESKRQRIDHSSSSNSSFTHNSFVPEPDSNSSSSEDQPLIGTKRKAEVLKESGKIGVTIKTSPDGPTIKPQPTQQVTPSQQQPFQDQQQAEKIASEAATQLKSEQQATPLATEAINTTPAESGAEEEEVANEEGNQQAPQVPSENNNIPKPCNNLAINQKQPLTPLSPRALPPRFWLPAKCNISNRVVITDVTVNLETVTIRECKTERGFFRERDMKGDSSPVA

Biological target: T1, GST-mFOG1 (aa 1-45) (mouse)
Assay: pull-down; 10-20 μg GST fusion on Glutathione Sepharose with 1 mg S2 cell nuclear extract or Drosophila embryo nuclear extract (TRAX); overnight at 4°C; 25 mM Hepes/KOH pH 7.6, 150 mM KCl, 0.1% NP-40; Western blot; only the target purified

Binder	binding
B1	no binding
B2	no binding
